Molecules are shown by their SMILES.

The data set deals with wild-type (WT) mice.

Regarding `O=C1CN(/N=C/c2ccc(-c3ccc([N+](=O)[O-])cc3)o2)C(O)=N1` [dantrolene], the “hippocampal-dependent memory (CFC) vs untreated controls” value (IN-DAN and SQ-DAN, 6 and 11 months of age) was “no significant differences”. The “hippocampal-independent memory (FC-cued)” value (all ETG and LTG groups, both ages) is “no significant differences”.

The record behind these values is patent US20220354827A1 (priority 2019, published 2022).
